Measurements reported in PubChem BioAssay AID743454 (Peter MacCallum Cancer Centre, 2014).
Aim: 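Knock-downs lowering viability or raising caspase 3/7 activity in vorinostat-treated resistant cells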 (primary screen). System: human HCT116-VR colon cancer cells, selected for vorinostat resistance. Reagents: siRNA pool against human genes, 40 nM siRNA pool. Timing: vorinostat for 24 h, read-out about 72 h after transfection. Conditions: vorinostat at 2.5 µM final. Measured: 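Cell viability by CellTiter-Fluor and caspase 3/7 activity by luminescence, each scaled to mock wells per plate, duplicates averaged, then robust z-scored over all plates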. Reading the numbers: viability robust z-score: higher = more viable cells than screen typical; caspase robust z-score: higher = more caspase 3/7 activity than screen typical. Hit rule: 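Hits are knock-downs in viability class RV1/RV2 or caspase class CA1/CA2, excluding ones that killed cells in the no-drug cell-count arm; hits then retested with single siRNAs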.
Shown is one part, drawn at random, of about 18,000 reagents tested. In the full data, 450 (2.5%) got an active call. 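Single biological run; no consistent viability z cut-off exists, so the class columns, not z-scores, define the calls.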 Entries without a mark were called inactive.

| target gene | viability hit class | caspase hit class | viability robust z-score | caspase robust z-score |
| --- | --- | --- | --- | --- |
| DRC10 (GeneID 115811) | no change | no change | 0.18 | 0.72 |
| IL3 (GeneID 3562) | no change | no change | -0.36 | -0.15 |
| PPP4R3B (GeneID 57223) | no change | no change | 0.71 | 0.14 |
| GALNT11 (GeneID 63917) | no change | no change | -0.8 | 0.53 |
| TAC1 (GeneID 6863) | no change | no change | -0.46 | 1.06 |
| ABCB10 (GeneID 23456) | no change | no change | -0.24 | -0.95 |
| RPL4 (GeneID 6124) | no change | no change | -4.72 | -1.16 |
| ADNP (GeneID 23394) | no change | no change | 0.83 | -0.36 |
| FAM161A (GeneID 84140) | no change | no change | -1.69 | 0.23 |
| CCDC106 (GeneID 29903) | no change | no change | 0.71 | 1.32 |
| MBLAC1 (GeneID 255374) | no change | no change | -0.2 | -0.47 |
| SVOP (GeneID 55530) | no change | no change | 0.5 | -0.72 |
| FAM9B (GeneID 171483) | no change | no change | 0.16 | -0.79 |
| PRDM1 (GeneID 639) | no change | no change | 0.66 | -0.48 |
| ADAM19 (GeneID 8728) | no change | no change | -0.41 | -0.74 |
| TXNDC15 (GeneID 79770) | no change | no change | 0.16 | -0.2 |
| HEPH (GeneID 9843) | no change | no change | 1.01 | -0.38 |
| FRG1 (GeneID 2483) | no change | no change | 1.15 | -0.4 |
| ORM1 (GeneID 5004) | no change | no change | 0.26 | -0.72 |
| TRIM32 (GeneID 22954) | no change | no change | -0.78 | 4.48 |
| OARD1 (GeneID 221443) | no change | no change | -1.62 | -1.19 |
| KIFAP3 (GeneID 22920) | no change | no change | -0.09 | 0.64 |
| IBA57 (GeneID 200205) | no change | no change | 0.9 | 1.68 |
| NXPE4 (GeneID 54827) | no change | no change | 1.59 | 0.48 |
| EXD1 (GeneID 161829) | no change | no change | -0.2 | -0.33 |
| MSL3 (GeneID 10943) | no change | no change | 0.4 | 2.08 |
| BARHL1 (GeneID 56751) | no change | no change | -1.43 | -0.24 |
| PBOV1 (GeneID 59351) | no change | no change | 0.06 | 0.32 |
| HTR2B (GeneID 3357) | no change | no change | 0.83 | -0.19 |
| PRCD (GeneID 768206) | no change | no change | 2.27 | -0.98 |
| ATP6V1G3 (GeneID 127124) | no change | no change | 0.75 | -0.81 |
| CT47A1 (GeneID 728096) | no change | no change | 0.49 | 1.94 |
| ZNF581 (GeneID 51545) | no change | no change | 0.12 | 0.5 |
| SUN3 (GeneID 256979) | no change | no change | -0.29 | -0.88 |
| SNRPA1 (GeneID 6627) | RV2 (reduced viability) (active) | no change | -3.27 | -0.96 |
| OR51V1 (GeneID 283111) | no change | no change | 0.5 | 0.56 |
| ZRANB2 (GeneID 9406) | no change | no change | -0.36 | 0.8 |
| HSFY2 (GeneID 159119) | no change | no change | -0.32 | 1.63 |
| RGS5 (GeneID 8490) | no change | no change | 0.79 | 1.9 |
| NME1-NME2 (GeneID 654364) | no change | no change | -2.16 | -0.66 |
| ADCY5 (GeneID 111) | no change | no change | -0.52 | 1.34 |
| EIF3J (GeneID 8669) | no change | no change | 0.3 | 0.36 |
| DSG4 (GeneID 147409) | no change | no change | 0.83 | 0.55 |
| CACNB2 (GeneID 783) | no change | no change | 0.44 | 0.48 |
| CCDC22 (GeneID 28952) | no change | no change | -0.36 | 0.56 |
| SIX4 (GeneID 51804) | no change | no change | -0.3 | 0.65 |
| SNPH (GeneID 9751) | no change | no change | -0.6 | 3.19 |
| CEBPB (GeneID 1051) | no change | no change | 0.42 | -0.77 |
| SLC43A2 (GeneID 124935) | no change | no change | 0.62 | 0.5 |
| ASB7 (GeneID 140460) | no change | no change | 0.84 | -0.39 |
| RNF168 (GeneID 165918) | no change | no change | -0.26 | 0.36 |
| CRISPLD2 (GeneID 83716) | no change | no change | 0.16 | -0.92 |
| RBM47 (GeneID 54502) | no change | no change | -1.2 | 0.71 |
| PTGES2 (GeneID 80142) | no change | no change | 0.42 | 0.38 |
| VEZF1 (GeneID 7716) | no change | no change | 0.25 | -1.01 |
| IL20RB (GeneID 53833) | no change | no change | 1.69 | 0.94 |
| MT1A (GeneID 4489) | no change | no change | -0.95 | 1.64 |
